The text below walks through data of publication PMC10570036, “Yeast transcription factor Msn2 binds to G4 DNA”.

For some assays here: A negative result means that nothing was seen under these conditions. Tags and fusion partners may be left off the protein sequences shown. For some assays here: At least one result comes from cells or an extract, where the contact may be indirect. For some assays here: Construct, isoform or probe ends are uncertain for at least one entry. For some assays here: A weaker result is weaker than the reference pair of the same experiment. For some assays here: At least one verdict was read from the data and is not stated in words by the source.

For series [1], the target named is T1, Msn2-13Myc (Saccharomyces cerevisiae (YPH45-derived)) (UniProt P33748).
T1 sequence (looked up): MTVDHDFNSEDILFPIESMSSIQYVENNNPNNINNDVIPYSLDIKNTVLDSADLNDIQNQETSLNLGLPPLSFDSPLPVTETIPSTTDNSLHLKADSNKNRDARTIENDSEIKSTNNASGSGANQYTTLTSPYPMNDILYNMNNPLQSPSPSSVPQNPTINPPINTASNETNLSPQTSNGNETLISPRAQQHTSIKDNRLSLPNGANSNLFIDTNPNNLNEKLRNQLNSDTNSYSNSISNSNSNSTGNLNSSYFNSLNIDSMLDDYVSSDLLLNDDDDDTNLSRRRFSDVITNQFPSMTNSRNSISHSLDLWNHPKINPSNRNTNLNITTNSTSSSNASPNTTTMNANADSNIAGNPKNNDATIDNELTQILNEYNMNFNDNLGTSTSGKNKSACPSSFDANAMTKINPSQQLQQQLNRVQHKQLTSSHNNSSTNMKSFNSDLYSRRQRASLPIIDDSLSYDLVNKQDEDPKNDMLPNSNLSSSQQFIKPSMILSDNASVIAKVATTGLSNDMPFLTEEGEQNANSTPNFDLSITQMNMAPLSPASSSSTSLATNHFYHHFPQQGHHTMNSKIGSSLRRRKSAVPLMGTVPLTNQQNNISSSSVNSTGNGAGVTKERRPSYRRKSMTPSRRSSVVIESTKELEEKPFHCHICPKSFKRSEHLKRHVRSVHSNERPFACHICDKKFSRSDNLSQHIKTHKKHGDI
The experiment in a line: pull-down. Particulars: pull-down: 400 pmol biotin oligo folded in 100 mM KCl or LiCl, streptavidin beads, yeast whole cell lysate, protein in an extract, residues 1-704, protein details: C-terminal 8xGly-13Myc.

For series [2], the target named is T2, Sub1-3xFlag (Saccharomyces cerevisiae (YPH45-derived)) (UniProt P54000).
T2 sequence (looked up, limits assumed): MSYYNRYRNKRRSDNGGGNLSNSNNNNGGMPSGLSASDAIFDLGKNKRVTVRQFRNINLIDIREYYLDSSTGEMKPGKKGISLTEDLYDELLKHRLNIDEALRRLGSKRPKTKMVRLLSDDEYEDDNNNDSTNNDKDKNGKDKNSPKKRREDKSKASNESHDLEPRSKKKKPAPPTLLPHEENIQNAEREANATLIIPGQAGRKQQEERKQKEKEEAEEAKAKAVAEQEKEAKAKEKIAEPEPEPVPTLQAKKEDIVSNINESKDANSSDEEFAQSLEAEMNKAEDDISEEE
The experiment in a line: pull-down. The note with it: pull-down: 400 pmol biotin oligo folded in 100 mM KCl or LiCl, streptavidin beads, yeast whole cell lysate, protein in an extract, protein details: 3xFlag, label: 3' biotin-TEG on C-run strand.

In series [3] the target is T3, GST-Msn2(596-704) zinc-finger domain (Saccharomyces cerevisiae) (UniProt P33748).
T3 sequence (looked up): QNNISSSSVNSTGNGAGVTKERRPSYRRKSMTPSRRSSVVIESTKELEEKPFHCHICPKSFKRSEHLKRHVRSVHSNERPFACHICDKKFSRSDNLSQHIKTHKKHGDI
Briefly: EMSA. The note with it: folded in 100 mM Li+; EMSA: oligos (0.1 uM) folded in 10 mM Tris-HCl pH 7.5, 100 mM KCl or LiCl; binding in 10 mM Tris-HCl pH 8.0, 1 mM DTT, 0.01% NP-40, 5% glycerol, 50 uM ZnSO4; recombinant protein; residues 596-704; protein details: N-terminal GST (pGEX4T1); label: 5' Cy5; folded or branched DNA. Background: Mobility shift assays separate free from complexed probe on a gel.

The mark [4] stands for this setting: label: 3' biotin-TEG, folded or branched DNA.
The mark [5] stands for this setting: label: 3' biotin-TEG, single-stranded DNA.

With “AAAGGGGGCACAATGGGTGAGTTGTCGGGTAAGGGAAT [ATG20pG4]”, in series [1] (setting [4]), the binding result was “binds”.
For the sequence “ACCGGGGGCACACCGGGGTAGGGGGTCCGGAGGGTTA [ATG39pG4 (pull-down)]”, the binding result in series [1] (setting [4]) is given as “binds”.
For CCCCTCCCTCGCGCCCGCCC [c-KIT2C-run], in series [1] (setting [5]), the binding result is given as “no binding”.
On to “CTGATAGATGTCACCCCGCTGGGCAGGTCAGGGCAGGGGCTCTCAGGGGGGCGCCATGGACAAACTGCACT (double strand) [dsTPS1pG4 (long)]”, for which the binding result in series [2] (folded in 100 mM K+) was “binds”; in series [2] (folded in 100 mM Li+) it was “binds more weakly”; in series [1] (folded in 100 mM K+, binding increases with K+, label: 3' biotin-TEG on C-run strand), “binds”; in series [1] (folded in 100 mM Li+, label: 3' biotin-TEG on C-run strand), “binds more weakly”.
As to “GAAGGGAGATAGGAAGGGGCGGGGGTCCGGGCAG [TSL1pG4]”, the binding result in series [1] (setting [4]) is listed as “binds”.
GAGCGAGCGCGAGAGAGGGG [c-KIT2G4Mut]: in series [1] (setting [5]), the binding result is reported as “no binding”.
Same read-out and setting: then “GCGCCCCCCTGAGAGCCCCTGCCCTGACCTGCCCAGC [ssTPS1pC-run]”, with “no binding”; and “GCTGAGCAGATCAGAGCAGGGGCTCTCAGGGGAACGC [ssTPS1pG4Mut]”, with “no binding”.
Consider “GCTGGGCAGGTCAGGGCAGGGGCTCTCAGGGGGGCGC [ssTPS1pG4]”, for which the binding result was “binds” in series [1] (folded in 100 mM K+, label: 3' biotin-TEG, folded or branched DNA) and “binds more weakly” in series [1] (folded in 100 mM Li+, label: 3' biotin-TEG, folded or branched DNA).
For “GCTGGGCAGGTCAGGGCCGGGGCTCTCCGGGGGGCGC [TPS1pG4-STREMut (AGGGG to CGGGG; name line missing)]”, the binding result in series [1] (setting [4]) was “binds”.
The same measure, in the same setting: for “GCTGGGCAGGTCAGGGCGGGGGCTCTCGGGGGGGCGC [TPS1pG4-STREMut (AGGGG to GGGGG; name line missing)]” the value was “binds”; for “GCTGGGCAGGTCAGGGCTGGGGCTCTCTGGGGGGCGC [TPS1pG4-STREMut1]”, “binds”; for “GGGACCGGGCCGAGCCGGGGGAAGGG [rPEX5G4-1801]”, “binds”.
GGGCGGGCGCGAGGGAGGGA [c-KIT2STREMut]: the binding result in series [1] (setting [4]) was “binds”.
Still for that read-out and setting: for GGGCGGGCGCGAGGGAGGGG [c-KIT2G4] the value was “binds”.
On the same count and under the same terms, then “GGGGAGATGGGCGGTGGGGAGCGCGGG [rPEX5G4-1773]”, with “binds”.
Consider GGGGCGCGGGGCGCGGGGCACGGGG [rPEX5G4-833], for which, in series [1] (setting [4]), the binding result is on record as “binds”.
The same measure, in the same setting: then GGGGCGGGGTCGGGGCTGGGG [rPEX5G4-801], with “binds”.
Consider “TGGGTGTTGTTGGGGGAGGGAAATGGGT [Cy5-BRCA1-G3]”, for which the binding result in series [3] was “no binding”.
